Data: the supplement of paper PMC10849652
The list shows a part of the results.

By UniProt entry, the sequences of proteins in these tests, tags left out. Where a name states a change or a piece, a line headed by the entry shows the natural chain unless it says otherwise.
UniProt Q05823: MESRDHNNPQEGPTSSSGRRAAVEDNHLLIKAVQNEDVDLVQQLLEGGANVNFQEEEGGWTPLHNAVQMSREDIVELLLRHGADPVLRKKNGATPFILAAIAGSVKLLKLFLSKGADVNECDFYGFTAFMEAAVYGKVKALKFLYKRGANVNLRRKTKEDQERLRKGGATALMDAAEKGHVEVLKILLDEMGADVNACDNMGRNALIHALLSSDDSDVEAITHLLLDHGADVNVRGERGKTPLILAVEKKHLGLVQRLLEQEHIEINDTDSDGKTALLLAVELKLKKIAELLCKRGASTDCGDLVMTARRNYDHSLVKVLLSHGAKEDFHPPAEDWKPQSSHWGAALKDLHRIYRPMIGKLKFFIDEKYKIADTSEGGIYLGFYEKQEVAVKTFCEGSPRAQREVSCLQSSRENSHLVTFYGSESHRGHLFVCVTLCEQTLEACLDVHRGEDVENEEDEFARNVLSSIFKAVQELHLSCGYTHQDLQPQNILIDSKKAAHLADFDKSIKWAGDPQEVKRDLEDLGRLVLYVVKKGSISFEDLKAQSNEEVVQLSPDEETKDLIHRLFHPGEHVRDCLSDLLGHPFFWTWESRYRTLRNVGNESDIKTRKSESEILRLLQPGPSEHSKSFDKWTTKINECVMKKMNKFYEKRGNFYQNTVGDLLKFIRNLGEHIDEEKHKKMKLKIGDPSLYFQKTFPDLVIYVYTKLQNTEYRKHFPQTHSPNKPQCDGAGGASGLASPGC
UniProt Q6ZS17: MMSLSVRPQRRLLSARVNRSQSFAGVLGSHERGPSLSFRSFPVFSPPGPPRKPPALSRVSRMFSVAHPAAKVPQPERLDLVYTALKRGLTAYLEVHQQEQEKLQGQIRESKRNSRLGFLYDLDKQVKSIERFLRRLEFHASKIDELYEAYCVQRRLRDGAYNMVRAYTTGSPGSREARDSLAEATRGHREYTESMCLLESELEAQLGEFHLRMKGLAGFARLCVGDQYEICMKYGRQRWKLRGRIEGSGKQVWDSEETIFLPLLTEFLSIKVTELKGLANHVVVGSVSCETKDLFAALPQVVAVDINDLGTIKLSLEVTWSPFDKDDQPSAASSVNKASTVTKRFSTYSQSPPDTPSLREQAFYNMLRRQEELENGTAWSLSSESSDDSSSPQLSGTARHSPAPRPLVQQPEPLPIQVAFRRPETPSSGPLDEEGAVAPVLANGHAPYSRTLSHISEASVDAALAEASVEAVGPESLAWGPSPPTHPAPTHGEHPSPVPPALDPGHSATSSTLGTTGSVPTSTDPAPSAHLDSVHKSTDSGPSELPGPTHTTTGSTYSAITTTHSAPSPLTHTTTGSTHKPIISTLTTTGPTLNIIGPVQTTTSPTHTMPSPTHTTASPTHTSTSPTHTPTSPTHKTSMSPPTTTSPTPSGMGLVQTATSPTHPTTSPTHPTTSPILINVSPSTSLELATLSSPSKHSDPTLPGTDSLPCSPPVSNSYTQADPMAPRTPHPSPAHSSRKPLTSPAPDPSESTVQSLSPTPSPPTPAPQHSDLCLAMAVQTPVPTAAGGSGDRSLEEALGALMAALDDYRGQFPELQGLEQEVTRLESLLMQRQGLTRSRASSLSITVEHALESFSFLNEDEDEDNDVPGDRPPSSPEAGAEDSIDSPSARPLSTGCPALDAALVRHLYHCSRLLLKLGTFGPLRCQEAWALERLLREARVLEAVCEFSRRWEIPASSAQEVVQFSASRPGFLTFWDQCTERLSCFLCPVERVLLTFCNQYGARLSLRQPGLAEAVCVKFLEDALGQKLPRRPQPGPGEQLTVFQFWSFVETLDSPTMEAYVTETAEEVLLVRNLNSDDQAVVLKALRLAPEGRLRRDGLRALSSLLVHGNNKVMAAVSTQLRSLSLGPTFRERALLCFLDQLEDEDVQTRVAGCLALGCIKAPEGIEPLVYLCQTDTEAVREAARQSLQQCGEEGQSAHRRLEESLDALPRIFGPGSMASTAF
UniProt Q9UBF6, whole entry, looked up: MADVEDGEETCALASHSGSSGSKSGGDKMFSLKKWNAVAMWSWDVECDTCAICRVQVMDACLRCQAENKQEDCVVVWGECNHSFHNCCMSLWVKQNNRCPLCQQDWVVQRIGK
UniProt P62745, whole entry, looked up: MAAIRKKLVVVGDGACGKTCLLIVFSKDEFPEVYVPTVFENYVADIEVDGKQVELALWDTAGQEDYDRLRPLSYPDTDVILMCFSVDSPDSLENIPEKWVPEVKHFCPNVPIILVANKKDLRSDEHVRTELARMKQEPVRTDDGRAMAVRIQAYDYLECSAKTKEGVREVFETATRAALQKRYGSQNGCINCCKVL
UniProt O75792: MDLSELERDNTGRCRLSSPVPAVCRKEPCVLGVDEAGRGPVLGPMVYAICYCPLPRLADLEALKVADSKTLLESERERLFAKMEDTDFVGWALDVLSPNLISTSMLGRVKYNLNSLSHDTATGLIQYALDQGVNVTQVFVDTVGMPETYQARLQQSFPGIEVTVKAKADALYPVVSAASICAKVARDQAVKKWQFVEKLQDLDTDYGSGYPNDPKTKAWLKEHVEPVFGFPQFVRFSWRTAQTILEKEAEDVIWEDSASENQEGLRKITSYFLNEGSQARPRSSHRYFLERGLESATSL
UniProt O00584, whole entry, looked up: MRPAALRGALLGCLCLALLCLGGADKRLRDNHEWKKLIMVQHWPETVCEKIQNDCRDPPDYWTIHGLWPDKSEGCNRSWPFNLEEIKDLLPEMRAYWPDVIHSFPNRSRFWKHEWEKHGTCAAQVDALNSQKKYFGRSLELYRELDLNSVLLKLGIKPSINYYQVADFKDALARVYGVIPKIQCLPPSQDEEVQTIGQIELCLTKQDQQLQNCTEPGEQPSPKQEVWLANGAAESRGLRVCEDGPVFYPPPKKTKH
UniProt Q8WVD5: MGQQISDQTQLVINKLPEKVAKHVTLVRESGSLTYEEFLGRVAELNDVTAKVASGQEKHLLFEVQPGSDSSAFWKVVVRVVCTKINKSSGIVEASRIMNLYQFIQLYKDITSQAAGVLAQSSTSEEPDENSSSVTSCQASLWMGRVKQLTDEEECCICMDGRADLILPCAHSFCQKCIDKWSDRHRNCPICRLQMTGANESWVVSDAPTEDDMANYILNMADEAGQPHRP
UniProt P10155: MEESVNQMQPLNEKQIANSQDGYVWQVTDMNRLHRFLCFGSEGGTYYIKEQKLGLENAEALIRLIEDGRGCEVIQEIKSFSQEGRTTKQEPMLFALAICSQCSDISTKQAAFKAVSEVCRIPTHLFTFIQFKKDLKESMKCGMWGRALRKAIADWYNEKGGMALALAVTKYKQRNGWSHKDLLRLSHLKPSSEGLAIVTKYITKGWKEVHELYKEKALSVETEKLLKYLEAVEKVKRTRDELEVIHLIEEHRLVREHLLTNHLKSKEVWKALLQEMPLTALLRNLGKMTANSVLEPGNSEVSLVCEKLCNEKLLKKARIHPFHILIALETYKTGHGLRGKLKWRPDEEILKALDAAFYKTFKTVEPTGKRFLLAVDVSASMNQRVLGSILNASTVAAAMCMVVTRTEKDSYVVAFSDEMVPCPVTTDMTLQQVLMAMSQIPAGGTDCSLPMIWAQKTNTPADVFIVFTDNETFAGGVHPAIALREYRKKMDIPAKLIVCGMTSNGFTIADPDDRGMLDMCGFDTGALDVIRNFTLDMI
UniProt Q4ADV7: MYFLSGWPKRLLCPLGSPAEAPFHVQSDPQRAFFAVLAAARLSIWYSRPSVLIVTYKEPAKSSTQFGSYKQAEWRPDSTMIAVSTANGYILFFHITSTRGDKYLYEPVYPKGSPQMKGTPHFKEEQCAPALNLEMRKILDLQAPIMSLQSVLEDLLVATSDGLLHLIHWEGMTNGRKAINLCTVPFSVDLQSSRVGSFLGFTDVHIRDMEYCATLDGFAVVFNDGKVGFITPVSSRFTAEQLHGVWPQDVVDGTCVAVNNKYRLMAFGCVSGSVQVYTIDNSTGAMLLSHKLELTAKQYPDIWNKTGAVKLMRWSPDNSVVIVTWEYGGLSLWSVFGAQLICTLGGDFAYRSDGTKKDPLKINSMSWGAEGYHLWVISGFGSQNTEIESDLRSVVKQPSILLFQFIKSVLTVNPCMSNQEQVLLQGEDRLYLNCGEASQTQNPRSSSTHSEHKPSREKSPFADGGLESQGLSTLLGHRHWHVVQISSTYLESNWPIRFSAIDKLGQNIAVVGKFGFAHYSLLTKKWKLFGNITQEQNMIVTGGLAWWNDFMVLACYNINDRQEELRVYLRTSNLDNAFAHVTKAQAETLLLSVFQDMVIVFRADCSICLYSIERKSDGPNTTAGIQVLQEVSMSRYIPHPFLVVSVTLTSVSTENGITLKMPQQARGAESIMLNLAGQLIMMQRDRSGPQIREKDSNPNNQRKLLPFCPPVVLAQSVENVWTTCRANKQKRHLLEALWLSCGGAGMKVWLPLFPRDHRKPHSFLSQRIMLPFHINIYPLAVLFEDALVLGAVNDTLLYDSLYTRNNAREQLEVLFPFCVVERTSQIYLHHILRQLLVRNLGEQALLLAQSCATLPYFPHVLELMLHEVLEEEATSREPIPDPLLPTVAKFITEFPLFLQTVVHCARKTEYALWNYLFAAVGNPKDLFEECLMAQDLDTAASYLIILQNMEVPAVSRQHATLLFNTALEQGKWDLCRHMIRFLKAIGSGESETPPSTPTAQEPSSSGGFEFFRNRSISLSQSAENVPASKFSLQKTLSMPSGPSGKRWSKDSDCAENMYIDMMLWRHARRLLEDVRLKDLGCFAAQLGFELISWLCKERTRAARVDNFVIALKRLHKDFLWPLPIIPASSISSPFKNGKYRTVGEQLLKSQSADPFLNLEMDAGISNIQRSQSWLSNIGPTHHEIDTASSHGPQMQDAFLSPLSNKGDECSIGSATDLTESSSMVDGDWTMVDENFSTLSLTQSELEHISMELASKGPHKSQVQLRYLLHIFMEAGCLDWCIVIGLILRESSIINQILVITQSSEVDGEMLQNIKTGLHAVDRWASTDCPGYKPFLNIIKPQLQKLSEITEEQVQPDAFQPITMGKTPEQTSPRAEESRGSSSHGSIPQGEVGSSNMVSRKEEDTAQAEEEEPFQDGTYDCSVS
UniProt P49247: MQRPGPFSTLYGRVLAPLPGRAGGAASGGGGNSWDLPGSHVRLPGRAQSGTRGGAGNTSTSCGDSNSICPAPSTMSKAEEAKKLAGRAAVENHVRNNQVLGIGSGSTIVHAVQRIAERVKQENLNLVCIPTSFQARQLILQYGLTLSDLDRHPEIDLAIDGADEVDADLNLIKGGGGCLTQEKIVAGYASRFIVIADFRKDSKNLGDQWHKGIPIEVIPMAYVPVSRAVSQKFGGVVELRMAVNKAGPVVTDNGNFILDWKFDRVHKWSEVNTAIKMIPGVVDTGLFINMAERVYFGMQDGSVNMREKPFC
UniProt O15541: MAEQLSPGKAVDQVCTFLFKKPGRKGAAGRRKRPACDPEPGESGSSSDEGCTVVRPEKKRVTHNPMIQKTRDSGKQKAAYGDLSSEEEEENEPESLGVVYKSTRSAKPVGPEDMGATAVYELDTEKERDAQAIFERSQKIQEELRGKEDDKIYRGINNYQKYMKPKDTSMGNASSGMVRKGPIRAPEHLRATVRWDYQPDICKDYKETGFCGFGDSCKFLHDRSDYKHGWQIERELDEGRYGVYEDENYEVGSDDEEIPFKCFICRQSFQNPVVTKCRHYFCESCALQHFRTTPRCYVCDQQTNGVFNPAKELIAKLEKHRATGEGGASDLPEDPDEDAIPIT
UniProt Q96AT9: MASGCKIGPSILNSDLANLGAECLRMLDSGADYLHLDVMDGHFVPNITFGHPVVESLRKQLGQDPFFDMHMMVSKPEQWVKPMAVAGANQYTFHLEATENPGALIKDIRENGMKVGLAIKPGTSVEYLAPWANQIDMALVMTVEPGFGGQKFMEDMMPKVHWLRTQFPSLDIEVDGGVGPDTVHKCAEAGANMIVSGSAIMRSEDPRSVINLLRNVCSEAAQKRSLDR
UniProt Q9H4A4: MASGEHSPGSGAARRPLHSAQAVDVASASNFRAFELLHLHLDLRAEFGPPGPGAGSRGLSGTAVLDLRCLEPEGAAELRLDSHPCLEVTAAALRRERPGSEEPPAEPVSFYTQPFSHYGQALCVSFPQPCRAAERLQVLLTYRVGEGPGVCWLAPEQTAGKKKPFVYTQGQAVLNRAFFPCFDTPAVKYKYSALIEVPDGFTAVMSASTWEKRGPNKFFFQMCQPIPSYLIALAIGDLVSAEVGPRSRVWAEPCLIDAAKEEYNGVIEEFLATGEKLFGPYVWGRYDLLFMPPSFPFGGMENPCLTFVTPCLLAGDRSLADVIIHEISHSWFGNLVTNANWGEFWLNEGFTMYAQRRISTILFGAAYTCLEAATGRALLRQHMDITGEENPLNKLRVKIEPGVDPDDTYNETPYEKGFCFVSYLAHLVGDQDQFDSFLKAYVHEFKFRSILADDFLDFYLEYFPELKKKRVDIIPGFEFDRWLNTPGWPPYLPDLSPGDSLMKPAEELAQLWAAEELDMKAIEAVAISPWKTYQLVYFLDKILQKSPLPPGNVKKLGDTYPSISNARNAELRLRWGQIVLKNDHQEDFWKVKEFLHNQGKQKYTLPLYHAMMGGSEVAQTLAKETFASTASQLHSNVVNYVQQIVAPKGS

Experiments:
Test in all cases: log2 fold change, soluble protein after heating vs DMSO (PISA); higher = thermal stabilisation; K562 lysate, 10 uM; active = over 0.2 and 3.5 SD of the protein, either way, in both replicates (recomputed)
alvocidib = compound: CN1CC[C@H](c2c(O)cc(O)c3c(=O)cc(-c4ccccc4Cl)oc23)[C@H](O)C1 [alvocidib]
Summary of the method: (§1)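 Values give the log-two fold change in thermal stability against solvent controls, from duplicates. Crude K562 extract at 1 mg/mL protein, made by dounce homogenisation in PBS pH 7.4 with 1 mM MgCl2, was treated with 10 μM compound for 30 min. After 3 min heating across 48°C-58°C, aliquots were pooled, adjusted to 0.5% NP-40 at 4°C and centrifuged at 21,000xg for 90 min. The supernatant was measured by TMTpro 16plex LC-MS/MS with channel sums equalised.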

Tubastatin A = compound: CN1CCc2c(c3ccccc3n2Cc2ccc(C(=O)NO)cc2)C1 [Tubastatin A]
Summary of the method: as §1

[1] = compound: CNC(=O)C1=CC=CC=C1NC2=NC(=NC=C2Cl)NC3=C(C=C(C=C3)N4CCOCC4)OC
Summary of the method: as §1

defactinib = compound: CNC(=O)c1ccc(Nc2ncc(C(F)(F)F)c(NCc3nccnc3N(C)S(C)(=O)=O)n2)cc1 [defactinib]
Summary of the method: as §1

[2] = compound: CNc1nc(-c2ccc3c(N)n[nH]c3c2)cc(N2C[C@@H](C(=O)NC3CCCCC3)CC[C@H]2C)n1
Summary of the method: as §1

encorafenib = compound: COC(=O)N[C@@H](C)CNc1nccc(-c2cn(C(C)C)nc2-c2cc(Cl)cc(NS(C)(=O)=O)c2F)n1 [encorafenib]
Summary of the method: as §1

[3] = compound: COC(=O)[C@H](CCSC)NC(=O)C1=C(C=C(C=C1)NC[C@H](CS)N)C2=CC=CC=C2
Summary of the method: as §1

alisertib = compound: COc1cc(Nc2ncc3c(n2)-c2ccc(Cl)cc2C(c2c(F)cccc2OC)=NC3)ccc1C(=O)O [alisertib]
Summary of the method: as §1

[4] = compound: COc1cc2nc(-c3cc(F)ccc3O)nc(N[C@@H]3CNC[C@H]3C(C)(C)O)c2cc1OC
Summary of the method: as §1

gefitinib = compound: COc1cc2ncnc(Nc3ccc(F)c(Cl)c3)c2cc1OCCCN1CCOCC1 [gefitinib]
Summary of the method: as §1

Measured: log2 fold change

RPL23 (UniProt P62829)
inactive: alvocidib -0.001 | Tubastatin A -0.004 | [1] -0.008 | defactinib -0.024 | [2] 0.03 | encorafenib -0.017 | [3] 0.021 | alisertib 0.025 | [4] 0.008 | gefitinib 0.007

RPL23A (UniProt P62750)
inactive: alvocidib 0.065 | Tubastatin A 0.046 | [1] 0.05 | defactinib -0.015 | [2] 0.024 | encorafenib -0.019 | [3] 0.013 | alisertib -0.006 | [4] 0.007 | gefitinib -0.044

RHOA (UniProt P61586)
inactive: alvocidib 0.093 | Tubastatin A -0.078 | [1] 0.087 | defactinib -0.029 | [2] -0.003 | encorafenib -0.042 | [3] -0.046 | alisertib 0.072 | [4] 0.029 | gefitinib 0.078

RPA2 isoform 3 (UniProt P15927)
inactive: alvocidib -0.018 | Tubastatin A 0.04 | [1] -0.008 | defactinib -0.014 | [2] -0.02 | encorafenib -0.025 | [3] 0.016 | alisertib -0.003 | [4] 0.007 | gefitinib -0.007

RNASEL (UniProt Q05823)
inactive: alvocidib 0.054 | Tubastatin A -0.094 | [1] -0.034 | defactinib -0.02 | [2] 0.012 | encorafenib 0.029 | [3] 0.144 | alisertib -0.074 | [4] -0.035 | gefitinib 0.061

Retrieved one by one from the list above (two):
RPA2 isoform 3 (UniProt P15927)
inactive: alvocidib -0.018 | Tubastatin A 0.04 | [1] -0.008 | defactinib -0.014 | [2] -0.02 | encorafenib -0.025 | [3] 0.016 | alisertib -0.003 | [4] 0.007 | gefitinib -0.007

RPL23 (UniProt P62829)
inactive: alvocidib -0.001 | Tubastatin A -0.004 | [1] -0.008 | defactinib -0.024 | [2] 0.03 | encorafenib -0.017 | [3] 0.021 | alisertib 0.025 | [4] 0.008 | gefitinib 0.007

Continuation:

RPA1 (UniProt P27694)
inactive: alvocidib 0.04 | Tubastatin A 0.001 | [1] 0.004 | defactinib -0.006 | [2] 0.015 | encorafenib -0.002 | [3] 0.001 | alisertib 0.009 | [4] 0 | gefitinib 0.041

RPL18A (UniProt Q02543)
inactive: alvocidib 0.011 | Tubastatin A -0.004 | [1] -0.006 | defactinib 0.026 | [2] -0.021 | encorafenib 0.039 | [3] 0.002 | alisertib 0.004 | [4] -0.001 | gefitinib -0.031

RPL28 (UniProt P46779)
inactive: alvocidib 0.03 | Tubastatin A 0.006 | [1] -0.009 | defactinib -0.018 | [2] 0.036 | encorafenib 0.012 | [3] -0.014 | alisertib 0.011 | [4] -0.005 | gefitinib -0.058

RPL35A (UniProt P18077)
inactive: alvocidib -0.067 | Tubastatin A 0.038 | [1] 0.004 | defactinib 0 | [2] 0.001 | encorafenib 0.005 | [3] 0.032 | alisertib 0.036 | [4] 0.002 | gefitinib -0.034

RIPOR1 isoform 4 (UniProt Q6ZS17)
inactive: alvocidib 0.042 | Tubastatin A -0.013 | [1] 0.029 | defactinib -0.099 | [2] -0.006 | encorafenib 0.039 | [3] 0.098 | alisertib 0.019 | [4] 0.202 | gefitinib 0.032

RNF7 (UniProt Q9UBF6)
inactive: alvocidib -0.071 | Tubastatin A 0.074 | [1] -0.011 | defactinib -0.016 | [2] 0.061 | encorafenib -0.153 | [3] 0.037 | alisertib -0.048 | [4] 0.016 | gefitinib -0.114

RHOB (UniProt P62745)
inactive: alvocidib 0.052 | Tubastatin A -0.028 | [1] 0.018 | defactinib 0.024 | [2] 0.095 | encorafenib 0 | [3] -0.037 | alisertib 0.044 | [4] 0.046 | gefitinib 0.056

RNASEH2A (UniProt O75792)
inactive: alvocidib 0.006 | Tubastatin A 0.009 | [1] 0.008 | defactinib -0.057 | [2] -0.024 | encorafenib 0.001 | [3] 0.058 | alisertib 0.023 | [4] -0.017 | gefitinib -0.001

RPL21 (UniProt P46778)
inactive: alvocidib -0.013 | Tubastatin A 0.055 | [1] -0.042 | defactinib -0.024 | [2] 0.096 | encorafenib -0.027 | [3] 0.028 | alisertib 0.036 | [4] 0.002 | gefitinib -0.057

RNASET2 (UniProt O00584)
inactive: alvocidib -0.033 | Tubastatin A 0.062 | [1] 0.002 | defactinib -0.01 | [2] 0.04 | encorafenib -0.035 | [3] -0.014 | alisertib -0.007 | [4] 0.004 | gefitinib 0.008

RNF141 (UniProt Q8WVD5)
inactive: alvocidib -0.027 | Tubastatin A -0.082 | [1] 0.067 | defactinib 0.004 | [2] 0.07 | encorafenib 0.145 | [3] -0.146 | alisertib -0.028 | [4] 0.02 | gefitinib 0.052

RO60 (UniProt P10155)
inactive: alvocidib 0.046 | Tubastatin A 0.02 | [1] 0.011 | defactinib 0.011 | [2] -0.011 | encorafenib 0 | [3] -0.044 | alisertib 0.014 | [4] -0.006 | gefitinib 0.019

RPL11 (UniProt P62913)
inactive: alvocidib 0.003 | Tubastatin A -0.005 | [1] -0.023 | defactinib -0.041 | [2] 0.005 | encorafenib -0.013 | [3] 0.026 | alisertib 0.011 | [4] -0.006 | gefitinib -0.002

RPL19 (UniProt P84098)
inactive: alvocidib 0.072 | Tubastatin A -0.015 | [1] -0.008 | defactinib 0.029 | [2] 0.015 | encorafenib 0.012 | [3] -0.017 | alisertib 0.005 | [4] 0.009 | gefitinib -0.031

RIC1 (UniProt Q4ADV7)
inactive: alvocidib 0.014 | Tubastatin A -0.051 | [1] 0.029 | defactinib -0.12 | [2] 0.02 | encorafenib 0.037 | [3] -0.13 | alisertib 0.017 | [4] -0.073 | gefitinib 0.024

RPIA (UniProt P49247)
inactive: alvocidib -0.014 | Tubastatin A 0.031 | [1] 0.042 | defactinib -0.014 | [2] 0.072 | encorafenib -0.018 | [3] -0.037 | alisertib -0.001 | [4] 0.006 | gefitinib 0.028

RNF40 (UniProt O75150)
inactive: alvocidib -0.003 | Tubastatin A -0.102 | [1] 0.023 | defactinib 0.022 | [2] -0.006 | encorafenib 0.015 | [3] 0.079 | alisertib -0.002 | [4] 0 | gefitinib 0.013

RNF113A (UniProt O15541)
inactive: alvocidib -0.062 | Tubastatin A 0.05 | [1] 0.014 | defactinib -0.013 | [2] 0.022 | encorafenib -0.019 | [3] -0.017 | alisertib -0.015 | [4] 0.015 | gefitinib 0.004

RPE (UniProt Q96AT9)
inactive: alvocidib -0.051 | Tubastatin A 0.024 | [1] -0.055 | defactinib 0.1 | [2] 0.1 | encorafenib 0.112 | [3] 0.021 | alisertib -0.045 | [4] -0.067 | gefitinib -0.049

RMND1 (UniProt Q9NWS8)
inactive: alvocidib 0 | Tubastatin A 0.045 | [1] 0.045 | defactinib 0.007 | [2] -0.033 | encorafenib -0.006 | [3] 0.029 | alisertib -0.055 | [4] 0.035 | gefitinib 0.023

RNPEP (UniProt Q9H4A4)
inactive: alvocidib -0.019 | Tubastatin A 0.013 | [1] -0.003 | defactinib -0.013 | [2] -0.002 | encorafenib -0.006 | [3] -0.027 | alisertib 0 | [4] -0.015 | gefitinib -0.027

RPL10 (UniProt F8W7C6)
inactive: alvocidib -0.089 | Tubastatin A 0.169 | [1] 0.015 | defactinib 0.003 | [2] 0.138 | encorafenib 0.048 | [3] 0.058 | alisertib 0.167 | [4] -0.028 | gefitinib 0.052
